Reference: article PMC11915853
These are yes or no findings as the source states them, for the method shown. In cells and extracts the contact can be indirect. Binding can be weak; no strength is given. Where a sequence is shown, tags or fusion partners need not be part of it.

Molecular target: T1, GST-fused capsid protein of tomato yellow leaf curl virus (tomato yellow leaf curl virus) (UniProt P27257)
T1 sequence: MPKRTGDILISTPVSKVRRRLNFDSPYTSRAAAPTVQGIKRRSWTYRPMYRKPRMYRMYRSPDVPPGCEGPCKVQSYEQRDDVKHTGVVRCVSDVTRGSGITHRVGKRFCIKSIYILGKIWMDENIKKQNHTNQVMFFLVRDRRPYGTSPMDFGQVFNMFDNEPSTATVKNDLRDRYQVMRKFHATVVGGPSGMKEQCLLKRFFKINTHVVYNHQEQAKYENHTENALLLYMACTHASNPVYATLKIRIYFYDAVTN
Assay: pull-down; GST-tagged CPs or GST from bacterial lysates immobilised on MagneGST particles, incubated with bacterial lysate expressing 6x-his-PDE4 overnight at 4°C, washed three times; blots with anti-histidine and anti-GST; only the target purified

6x-his-PDE4 of Bemisia tabaci (enzyme)
binding: binds
